According to the supplement of paper PMC10849652:
The list shows a part of the results.

The chains behind the UniProt entries cited, without tags or fusion partners. Where a name states a change or a piece, a line headed by the entry shows the natural chain unless it says otherwise.
UniProt Q9H7E2: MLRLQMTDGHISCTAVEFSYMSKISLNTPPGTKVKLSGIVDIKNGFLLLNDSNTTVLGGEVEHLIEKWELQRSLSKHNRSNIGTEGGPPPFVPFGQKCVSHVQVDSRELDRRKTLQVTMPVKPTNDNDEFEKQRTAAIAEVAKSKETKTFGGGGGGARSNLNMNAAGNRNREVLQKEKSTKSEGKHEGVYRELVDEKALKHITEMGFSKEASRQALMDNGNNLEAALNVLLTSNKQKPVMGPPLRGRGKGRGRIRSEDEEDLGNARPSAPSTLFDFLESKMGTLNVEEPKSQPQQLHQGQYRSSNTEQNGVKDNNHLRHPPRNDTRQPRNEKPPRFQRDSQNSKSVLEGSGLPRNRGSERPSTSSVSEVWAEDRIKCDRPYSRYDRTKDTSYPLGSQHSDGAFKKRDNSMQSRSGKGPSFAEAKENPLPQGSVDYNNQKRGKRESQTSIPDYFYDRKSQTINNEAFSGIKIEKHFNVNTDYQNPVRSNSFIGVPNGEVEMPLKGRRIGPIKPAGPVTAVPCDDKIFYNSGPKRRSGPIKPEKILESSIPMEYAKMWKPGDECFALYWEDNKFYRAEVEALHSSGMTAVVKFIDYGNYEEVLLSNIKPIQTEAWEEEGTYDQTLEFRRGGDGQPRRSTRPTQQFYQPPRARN
UniProt Q00059: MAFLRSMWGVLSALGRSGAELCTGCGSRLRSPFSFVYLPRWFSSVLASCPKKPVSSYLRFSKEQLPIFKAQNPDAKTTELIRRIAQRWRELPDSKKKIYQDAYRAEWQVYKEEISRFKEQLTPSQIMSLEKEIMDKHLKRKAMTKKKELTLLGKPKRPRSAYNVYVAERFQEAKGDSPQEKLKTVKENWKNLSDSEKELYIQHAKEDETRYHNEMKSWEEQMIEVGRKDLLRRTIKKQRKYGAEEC
UniProt Q8IWB9: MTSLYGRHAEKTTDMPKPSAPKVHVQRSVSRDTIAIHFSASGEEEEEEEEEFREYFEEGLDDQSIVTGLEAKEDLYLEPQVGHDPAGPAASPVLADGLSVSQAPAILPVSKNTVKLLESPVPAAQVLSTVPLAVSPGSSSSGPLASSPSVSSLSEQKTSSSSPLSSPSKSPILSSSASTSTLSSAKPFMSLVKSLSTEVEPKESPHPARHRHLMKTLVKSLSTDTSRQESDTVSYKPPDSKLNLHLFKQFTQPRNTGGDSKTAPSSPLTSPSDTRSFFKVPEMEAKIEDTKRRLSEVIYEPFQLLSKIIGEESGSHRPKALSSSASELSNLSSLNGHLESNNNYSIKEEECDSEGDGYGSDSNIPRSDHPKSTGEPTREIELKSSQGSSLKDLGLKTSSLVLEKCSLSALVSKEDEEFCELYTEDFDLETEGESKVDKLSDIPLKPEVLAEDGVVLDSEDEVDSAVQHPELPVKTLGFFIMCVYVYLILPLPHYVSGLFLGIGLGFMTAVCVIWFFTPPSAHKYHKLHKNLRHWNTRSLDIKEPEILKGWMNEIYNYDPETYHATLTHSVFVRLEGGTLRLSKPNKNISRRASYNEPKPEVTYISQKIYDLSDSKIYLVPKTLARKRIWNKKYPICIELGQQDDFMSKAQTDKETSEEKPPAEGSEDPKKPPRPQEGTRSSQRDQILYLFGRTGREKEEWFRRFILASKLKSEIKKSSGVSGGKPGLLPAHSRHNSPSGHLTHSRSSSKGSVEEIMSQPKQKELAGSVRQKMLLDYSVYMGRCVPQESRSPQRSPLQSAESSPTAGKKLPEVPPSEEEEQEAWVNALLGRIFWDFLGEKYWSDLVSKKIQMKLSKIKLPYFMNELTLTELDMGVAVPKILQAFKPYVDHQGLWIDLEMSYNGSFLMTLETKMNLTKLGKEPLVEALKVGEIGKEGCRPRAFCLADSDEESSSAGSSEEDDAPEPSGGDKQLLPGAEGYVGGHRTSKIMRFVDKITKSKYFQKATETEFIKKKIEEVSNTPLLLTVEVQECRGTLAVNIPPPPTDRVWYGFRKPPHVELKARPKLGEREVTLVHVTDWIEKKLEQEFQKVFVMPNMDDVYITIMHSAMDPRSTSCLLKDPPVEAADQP
UniProt Q9Y2W6: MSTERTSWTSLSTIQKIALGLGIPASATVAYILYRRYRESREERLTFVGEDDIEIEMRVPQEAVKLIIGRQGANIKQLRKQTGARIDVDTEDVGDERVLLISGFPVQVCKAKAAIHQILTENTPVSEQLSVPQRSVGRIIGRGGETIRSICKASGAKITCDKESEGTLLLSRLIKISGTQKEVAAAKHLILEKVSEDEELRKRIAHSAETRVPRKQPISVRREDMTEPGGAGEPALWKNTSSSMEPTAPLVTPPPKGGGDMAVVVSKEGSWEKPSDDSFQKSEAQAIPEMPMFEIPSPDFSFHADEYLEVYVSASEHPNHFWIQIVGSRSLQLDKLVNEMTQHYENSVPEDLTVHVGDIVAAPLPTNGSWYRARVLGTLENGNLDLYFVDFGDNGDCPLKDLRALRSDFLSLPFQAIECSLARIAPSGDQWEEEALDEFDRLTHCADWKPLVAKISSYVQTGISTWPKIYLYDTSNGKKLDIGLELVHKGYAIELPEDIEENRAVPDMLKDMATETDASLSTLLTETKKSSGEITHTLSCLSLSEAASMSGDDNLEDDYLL
UniProt Q9UL54: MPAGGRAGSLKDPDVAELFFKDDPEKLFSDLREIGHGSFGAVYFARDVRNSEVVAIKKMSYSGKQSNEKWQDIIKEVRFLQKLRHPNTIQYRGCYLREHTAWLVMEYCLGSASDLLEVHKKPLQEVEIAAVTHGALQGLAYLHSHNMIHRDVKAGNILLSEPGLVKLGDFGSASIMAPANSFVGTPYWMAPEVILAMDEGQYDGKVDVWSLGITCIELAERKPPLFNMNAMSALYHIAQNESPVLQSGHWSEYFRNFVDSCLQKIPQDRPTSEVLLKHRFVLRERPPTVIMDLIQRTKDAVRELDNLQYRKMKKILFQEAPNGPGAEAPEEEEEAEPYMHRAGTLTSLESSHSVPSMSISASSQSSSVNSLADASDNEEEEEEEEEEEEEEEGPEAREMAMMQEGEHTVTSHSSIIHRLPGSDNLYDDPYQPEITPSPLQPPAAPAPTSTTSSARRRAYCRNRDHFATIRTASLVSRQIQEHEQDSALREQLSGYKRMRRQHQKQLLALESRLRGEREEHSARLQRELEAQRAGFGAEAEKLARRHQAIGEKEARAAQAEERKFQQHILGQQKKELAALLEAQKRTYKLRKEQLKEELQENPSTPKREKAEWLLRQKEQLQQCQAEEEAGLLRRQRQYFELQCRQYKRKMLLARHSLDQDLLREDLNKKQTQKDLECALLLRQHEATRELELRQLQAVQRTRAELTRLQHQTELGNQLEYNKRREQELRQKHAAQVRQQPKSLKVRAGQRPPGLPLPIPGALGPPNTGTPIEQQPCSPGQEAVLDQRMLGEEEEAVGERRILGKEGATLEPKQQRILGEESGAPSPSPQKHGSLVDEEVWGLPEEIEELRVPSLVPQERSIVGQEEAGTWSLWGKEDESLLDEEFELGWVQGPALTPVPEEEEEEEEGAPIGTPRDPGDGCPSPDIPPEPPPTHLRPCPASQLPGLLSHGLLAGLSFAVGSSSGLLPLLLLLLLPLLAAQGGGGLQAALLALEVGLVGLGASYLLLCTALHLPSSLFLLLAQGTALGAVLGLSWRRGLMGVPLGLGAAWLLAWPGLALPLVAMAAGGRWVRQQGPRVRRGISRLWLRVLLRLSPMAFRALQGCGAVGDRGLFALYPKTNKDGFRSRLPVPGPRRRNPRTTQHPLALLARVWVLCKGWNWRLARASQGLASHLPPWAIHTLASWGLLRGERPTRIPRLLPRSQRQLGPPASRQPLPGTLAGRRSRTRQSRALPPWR
UniProt Q9NUW8, whole entry, looked up: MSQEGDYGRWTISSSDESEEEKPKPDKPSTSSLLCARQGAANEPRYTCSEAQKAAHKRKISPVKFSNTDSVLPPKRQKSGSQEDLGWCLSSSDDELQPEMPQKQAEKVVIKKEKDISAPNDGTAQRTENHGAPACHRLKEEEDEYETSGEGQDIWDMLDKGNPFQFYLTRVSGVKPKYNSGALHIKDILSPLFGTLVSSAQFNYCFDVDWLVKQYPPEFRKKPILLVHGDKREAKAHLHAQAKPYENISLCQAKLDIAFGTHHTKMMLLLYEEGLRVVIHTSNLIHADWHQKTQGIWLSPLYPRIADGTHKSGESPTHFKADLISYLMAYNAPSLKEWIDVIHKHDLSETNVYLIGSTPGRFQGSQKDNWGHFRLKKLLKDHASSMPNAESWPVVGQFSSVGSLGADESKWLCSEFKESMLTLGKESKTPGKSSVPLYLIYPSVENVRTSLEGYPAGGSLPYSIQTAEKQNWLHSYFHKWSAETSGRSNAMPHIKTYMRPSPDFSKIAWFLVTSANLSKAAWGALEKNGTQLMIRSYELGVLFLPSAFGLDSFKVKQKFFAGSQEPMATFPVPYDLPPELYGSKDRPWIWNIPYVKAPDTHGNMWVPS
UniProt Q13148, whole entry, looked up: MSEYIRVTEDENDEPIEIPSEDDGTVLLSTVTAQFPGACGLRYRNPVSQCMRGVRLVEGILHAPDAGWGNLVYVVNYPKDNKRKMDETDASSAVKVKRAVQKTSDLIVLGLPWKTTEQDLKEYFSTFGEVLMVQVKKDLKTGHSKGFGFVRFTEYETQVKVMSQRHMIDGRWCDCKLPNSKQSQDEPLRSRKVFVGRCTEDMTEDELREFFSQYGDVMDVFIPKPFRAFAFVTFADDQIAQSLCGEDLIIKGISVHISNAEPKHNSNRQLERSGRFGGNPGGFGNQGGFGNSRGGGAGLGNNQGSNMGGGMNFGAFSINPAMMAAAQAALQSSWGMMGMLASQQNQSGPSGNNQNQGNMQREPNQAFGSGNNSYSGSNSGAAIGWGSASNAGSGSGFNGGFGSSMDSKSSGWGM
UniProt Q969Z0: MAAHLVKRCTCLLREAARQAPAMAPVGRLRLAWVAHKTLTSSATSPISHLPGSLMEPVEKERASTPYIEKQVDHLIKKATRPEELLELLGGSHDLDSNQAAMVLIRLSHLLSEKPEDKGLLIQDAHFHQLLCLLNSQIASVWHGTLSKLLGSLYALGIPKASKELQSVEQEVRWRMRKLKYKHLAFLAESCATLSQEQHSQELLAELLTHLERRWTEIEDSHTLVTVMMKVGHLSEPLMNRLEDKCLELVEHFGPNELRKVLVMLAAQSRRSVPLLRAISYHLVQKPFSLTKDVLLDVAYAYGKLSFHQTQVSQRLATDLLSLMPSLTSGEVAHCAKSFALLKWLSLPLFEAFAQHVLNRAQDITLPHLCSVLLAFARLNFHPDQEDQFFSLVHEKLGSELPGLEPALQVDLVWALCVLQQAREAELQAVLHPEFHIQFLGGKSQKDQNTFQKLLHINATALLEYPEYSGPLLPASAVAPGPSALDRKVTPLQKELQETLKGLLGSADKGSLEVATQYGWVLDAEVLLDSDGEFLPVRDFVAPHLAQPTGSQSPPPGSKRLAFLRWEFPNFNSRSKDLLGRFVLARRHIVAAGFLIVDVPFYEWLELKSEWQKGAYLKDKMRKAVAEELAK
UniProt Q9HA65: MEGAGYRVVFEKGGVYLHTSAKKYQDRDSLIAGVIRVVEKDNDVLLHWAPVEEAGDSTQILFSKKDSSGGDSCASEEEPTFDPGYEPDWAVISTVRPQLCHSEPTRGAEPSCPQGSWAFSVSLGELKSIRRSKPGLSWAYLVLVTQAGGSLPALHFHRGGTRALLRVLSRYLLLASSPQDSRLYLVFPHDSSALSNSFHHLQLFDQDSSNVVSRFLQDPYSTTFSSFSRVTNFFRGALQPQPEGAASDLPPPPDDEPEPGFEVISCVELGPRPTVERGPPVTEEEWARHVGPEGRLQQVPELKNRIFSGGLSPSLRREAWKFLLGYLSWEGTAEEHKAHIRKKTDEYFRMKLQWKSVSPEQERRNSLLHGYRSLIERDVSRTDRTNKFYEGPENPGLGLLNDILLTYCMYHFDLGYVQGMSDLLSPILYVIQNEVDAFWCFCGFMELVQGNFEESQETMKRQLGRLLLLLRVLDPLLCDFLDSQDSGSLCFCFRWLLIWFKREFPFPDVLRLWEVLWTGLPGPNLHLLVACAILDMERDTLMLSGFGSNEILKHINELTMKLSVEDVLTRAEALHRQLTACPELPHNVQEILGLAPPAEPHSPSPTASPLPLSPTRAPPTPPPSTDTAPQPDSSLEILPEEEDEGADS
UniProt Q9NYB0: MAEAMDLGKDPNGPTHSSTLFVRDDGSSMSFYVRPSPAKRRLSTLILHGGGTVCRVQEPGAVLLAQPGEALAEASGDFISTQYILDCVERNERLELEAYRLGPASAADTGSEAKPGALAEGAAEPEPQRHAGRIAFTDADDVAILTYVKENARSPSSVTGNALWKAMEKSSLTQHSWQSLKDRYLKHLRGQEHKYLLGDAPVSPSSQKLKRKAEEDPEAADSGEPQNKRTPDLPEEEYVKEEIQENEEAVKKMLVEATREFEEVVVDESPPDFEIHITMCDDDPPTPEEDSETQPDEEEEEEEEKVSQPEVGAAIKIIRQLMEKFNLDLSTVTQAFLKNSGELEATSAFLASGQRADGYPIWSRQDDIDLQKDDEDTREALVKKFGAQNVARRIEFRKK

Experiments:
Experiment in all cases: log2 fold change, soluble protein after heating vs DMSO (PISA); higher = thermal stabilisation; K562 lysate, 10 uM; active = over 0.2 and 3.5 SD of the protein, either way, in both replicates (recomputed)
lapatinib = compound: CS(=O)(=O)CCNCc1ccc(-c2ccc3ncnc(Nc4ccc(OCc5cccc(F)c5)c(Cl)c4)c3c2)o1 [lapatinib]
Outline: (§1)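 Log-two fold change in thermal stability relative to solvent controls is reported from duplicates. For each sample, crude K562 extract from dounce-homogenised pellets in PBS pH 7.4 with 1 mM MgCl2, at 1 mg/mL protein, was treated with 10 μM compound for 30 min. Aliquots heated for 3 min across 48°C-58°C were pooled, brought to 0.5% NP-40 at 4°C and cleared at 21,000xg for 90 min. The supernatant was quantified by TMTpro 16plex LC-MS/MS with channel sums equalised.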

pictilisib = compound: CS(=O)(=O)N1CCN(Cc2cc3nc(-c4cccc5[nH]ncc45)nc(N4CCOCC4)c3s2)CC1 [pictilisib]
Outline: as §1

crizotinib = compound: C[C@@H](Oc1cc(-c2cnn(C3CCNCC3)c2)cnc1N)c1c(Cl)ccc(F)c1Cl [crizotinib]
Outline: as §1

[1] = compound: C[C@H](C1=CC=C(C=C1)C(=O)NC2=C3C=CNC3=NC=C2)N
Outline: as §1

duvelisib = compound: C[C@H](Nc1ncnc2nc[nH]c12)c1cc2cccc(Cl)c2c(=O)n1-c1ccccc1 [duvelisib]
Outline: as §1

gandotinib = compound: Cc1cc(Nc2cc(CN3CCOCC3)c3nc(C)c(Cc4ccc(Cl)cc4F)n3n2)n[nH]1 [gandotinib]
Outline: as §1

tozasertib = compound: Cc1cc(Nc2cc(N3CCN(C)CC3)nc(Sc3ccc(NC(=O)C4CC4)cc3)n2)n[nH]1 [tozasertib]
Outline: as §1

doramapimod = compound: Cc1ccc(-n2nc(C(C)(C)C)cc2NC(=O)Nc2ccc(OCCN3CCOCC3)c3ccccc23)cc1 [doramapimod]
Outline: as §1

bafetinib = compound: Cc1ccc(NC(=O)c2ccc(CN3CC[C@H](N(C)C)C3)c(C(F)(F)F)c2)cc1Nc1nccc(-c2cncnc2)n1 [bafetinib]
Outline: as §1

[2] = compound: Cc1cccc(CC(=O)N2CCc3c2ccc(-c2cn(C)c4ncnc(N)c24)c3F)n1
Outline: as §1

nilotinib = compound: Cc1cn(-c2cc(NC(=O)c3ccc(C)c(Nc4nccc(-c5cccnc5)n4)c3)cc(C(F)(F)F)c2)cn1 [nilotinib]
Outline: as §1

[3] = compound: Cc1nc(Nc2n[nH]c3c2CN(C(=O)N[C@H](CN(C)C)c2ccccc2)C3(C)C)c2sccc2n1
Outline: as §1

dasatinib = compound: Cc1nc(Nc2ncc(C(=O)Nc3c(C)cccc3Cl)s2)cc(N2CCN(CCO)CC2)n1 [dasatinib]
Outline: as §1

[4] = compound: Cc1ncc(-c2ccnc(Nc3ccc(S(C)(=O)=O)cc3)n2)n1C(C)C
Outline: as §1

[5] = compound: Cn1cc(-c2ccc3c(c2)CCN3C(=O)Cc2cccc(C(F)(F)F)c2)c2c(N)ncnc21
Outline: as §1

quisinostat = compound: Cn1cc(CNCC2CCN(c3ncc(C(=O)NO)cn3)CC2)c2ccccc21 [quisinostat]
Outline: as §1

tipifarnib = compound: Cn1cncc1[C@@](N)(c1ccc(Cl)cc1)c1ccc2c(c1)c(-c1cccc(Cl)c1)cc(=O)n2C [tipifarnib]
Outline: as §1

[6] = compound: NC(=O)Nc1cc(-c2cccc(F)c2)sc1C(=O)N[C@H]1CCCNC1
Outline: as §1

[7] = compound: NC(=O)c1cnc(N[C@@H]2CCCC[C@@H]2N)nc1Nc1cccc(-n2nccn2)c1
Outline: as §1

[8] = compound: NC1(c2ccc(-c3nc4ccn5c(=O)[nH]nc5c4cc3-c3ccccc3)cc2)CCC1
Outline: as §1

Row | Target | log2 fold change (lapatinib) | log2 fold change (pictilisib) | log2 fold change (crizotinib) | log2 fold change [1] | log2 fold change (duvelisib) | log2 fold change (gandotinib) | log2 fold change (tozasertib) | log2 fold change (doramapimod) | log2 fold change (bafetinib) | log2 fold change [2] | log2 fold change (nilotinib) | log2 fold change [3] | log2 fold change (dasatinib) | log2 fold change [4] | log2 fold change [5] | log2 fold change (quisinostat) | log2 fold change (tipifarnib) | log2 fold change [6] | log2 fold change [7] | log2 fold change [8]
1 | TBC1D22A (UniProt Q8WUA7) | inactive: 0.021 | inactive: -0.043 | inactive: 0.032 | inactive: 0.01 | inactive: 0.007 | inactive: -0.012 | inactive: -0.012 | inactive: -0.01 | inactive: 0.071 | inactive: 0.027 | inactive: 0 | inactive: 0.014 | inactive: -0.004 | inactive: -0.031 | inactive: 0.039 | inactive: 0.014 | inactive: 0.021 | inactive: 0.004 | inactive: 0.003 | inactive: 0.018
2 | TES (UniProt Q9UGI8) | inactive: 0.011 | inactive: 0.003 | inactive: -0.005 | inactive: -0.056 | inactive: 0.01 | inactive: 0.011 | inactive: 0.017 | inactive: 0 | inactive: -0.003 | inactive: 0.022 | inactive: 0.011 | inactive: -0.005 | inactive: 0.023 | inactive: 0.017 | inactive: -0.001 | inactive: 0.02 | inactive: 0.011 | inactive: -0.026 | inactive: 0.001 | inactive: -0.008
3 | TFR2 (UniProt Q9UP52) | inactive: -0.031 | inactive: 0.042 | inactive: 0.026 | inactive: -0.017 | inactive: -0.008 | inactive: 0.058 | inactive: -0.007 | inactive: -0.02 | inactive: 0.017 | inactive: 0.075 | inactive: 0.025 | inactive: -0.019 | inactive: 0.009 | inactive: -0.007 | inactive: -0.004 | inactive: 0.011 | inactive: -0.029 | inactive: 0.006 | inactive: -0.031 | inactive: -0.005
4 | TDRD3 isoform 3 (UniProt Q9H7E2) | inactive: 0.005 | inactive: -0.038 | inactive: 0.024 | inactive: 0.127 | inactive: -0.02 | inactive: -0.068 | inactive: 0.034 | inactive: -0.151 | inactive: 0.093 | inactive: 0.01 | inactive: 0.261 | inactive: -0.04 | inactive: 0.033 | inactive: 0.17 | inactive: 0.01 | inactive: -0.023 | inactive: -0.152 | inactive: 0.042 | inactive: 0.014 | inactive: 0.064
5 | TFAM (UniProt Q00059) | inactive: -0.004 | inactive: -0.001 | inactive: 0.045 | inactive: 0.015 | inactive: -0.014 | inactive: -0.064 | inactive: 0.011 | inactive: -0.024 | inactive: -0.02 | inactive: -0.064 | inactive: 0.003 | inactive: -0.038 | inactive: -0.003 | inactive: 0.021 | inactive: 0.016 | inactive: 0.074 | inactive: 0.051 | inactive: -0.007 | inactive: 0 | inactive: 0.001
6 | TEX2 isoform 2 (UniProt Q8IWB9) | inactive: -0.009 | inactive: -0.015 | inactive: 0.034 | inactive: 0.2 | inactive: 0.066 | inactive: -0.209 | inactive: 0.076 | inactive: 0.055 | inactive: -0.156 | inactive: -0.085 | inactive: -0.012 | inactive: -0.002 | inactive: 0.018 | inactive: 0.03 | inactive: 0.009 | inactive: -0.017 | inactive: -0.092 | inactive: -0.021 | inactive: 0.056 | inactive: -0.022
7 | TDRKH (UniProt Q9Y2W6) | inactive: -0.069 | inactive: -0.036 | inactive: -0.083 | inactive: -0.061 | inactive: -0.028 | inactive: 0.062 | inactive: 0.081 | inactive: -0.043 | inactive: 0.02 | inactive: 0.074 | inactive: -0.01 | inactive: -0.077 | inactive: -0.059 | inactive: 0.018 | inactive: 0.028 | inactive: -0.087 | inactive: -0.048 | inactive: 0.041 | inactive: 0.003 | inactive: 0.067
8 | TARSL2 (UniProt A2RTX5) | inactive: -0.034 | inactive: -0.006 | inactive: -0.027 | inactive: -0.044 | inactive: -0.005 | inactive: 0.036 | inactive: 0.039 | inactive: -0.006 | inactive: -0.061 | inactive: 0.036 | inactive: 0.025 | inactive: 0.056 | inactive: -0.056 | inactive: 0.034 | inactive: 0.013 | inactive: -0.068 | inactive: -0.016 | inactive: -0.008 | inactive: 0.012 | inactive: -0.016
9 | TAOK2 (UniProt Q9UL54) | inactive: -0.049 | inactive: -0.054 | inactive: -0.081 | inactive: -0.136 | inactive: -0.002 | inactive: 0.07 | inactive: -0.026 | inactive: 0.046 | inactive: -0.004 | inactive: 0.261 | inactive: 0.033 | inactive: -0.069 | inactive: -0.231 | inactive: 0.012 | inactive: 0.052 | active: -0.516 | inactive: 0.033 | inactive: 0.022 | inactive: -0.008 | 
10 | TBC1D9B isoform 2 (UniProt Q66K14) | inactive: -0.045 | inactive: 0.01 | inactive: -0.082 | inactive: -0.081 | inactive: -0.028 | inactive: 0.043 | inactive: -0.024 | inactive: 0.044 | inactive: -0.038 | inactive: 0.145 | inactive: 0.107 | inactive: -0.064 | inactive: 0.028 | inactive: 0 | inactive: -0.002 | inactive: -0.097 | inactive: -0.048 | inactive: 0.018 | inactive: 0.053 | inactive: -0.166
11 | TDP1 (UniProt Q9NUW8) | inactive: -0.014 | inactive: -0.018 | inactive: 0.031 | inactive: -0.018 | inactive: -0.052 | inactive: 0 | inactive: -0.082 | inactive: -0.037 | inactive: 0.048 | inactive: -0.029 | inactive: -0.061 | inactive: 0.073 | inactive: 0.076 | inactive: -0.021 | inactive: 0.107 | inactive: 0.056 | inactive: 0.003 | inactive: 0.01 | inactive: 0.029 | inactive: 0.04
12 | TARDBP (UniProt Q13148) | inactive: 0.002 | inactive: 0.145 | inactive: 0.018 | inactive: 0.005 | inactive: -0.045 | inactive: 0.115 | inactive: 0.022 | inactive: 0.282 | inactive: -0.055 | inactive: 0.044 | inactive: -0.146 | inactive: -0.079 | inactive: -0.005 | inactive: -0.051 | inactive: 0.007 | inactive: -0.087 | active: -0.554 | inactive: 0.136 | inactive: 0.021 | inactive: 0.027
13 | TBRG4 (UniProt Q969Z0) | inactive: -0.021 | inactive: -0.039 | inactive: -0.031 | inactive: 0.08 | inactive: 0.006 | active: -0.269 | inactive: 0.038 | inactive: -0.012 | inactive: -0.029 | inactive: -0.021 | inactive: -0.016 | inactive: -0.03 | inactive: -0.035 | inactive: 0.007 | inactive: 0.059 | inactive: 0.004 | inactive: -0.006 | inactive: 0.038 | inactive: 0.022 | inactive: 0.019
14 | TBC1D17 (UniProt Q9HA65) | inactive: 0.012 | inactive: -0.037 | inactive: -0.001 | inactive: 0.033 | inactive: 0.001 | inactive: -0.075 | inactive: 0.041 | inactive: 0.024 | inactive: 0.002 | inactive: -0.017 | inactive: 0.042 | inactive: -0.043 | inactive: 0.001 | inactive: -0.006 | inactive: -0.032 | inactive: 0.039 | inactive: 0.025 | inactive: 0.007 | inactive: 0.001 | inactive: 0.024
15 | TERF2IP (UniProt Q9NYB0) | inactive: -0.007 | inactive: 0.007 | inactive: 0.021 | active: 0.249 | inactive: 0.022 | inactive: -0.122 | inactive: -0.023 | inactive: -0.016 | inactive: 0.004 | inactive: -0.181 | inactive: 0.012 | inactive: 0.013 | inactive: 0.018 | inactive: 0.009 | inactive: 0.005 | inactive: 0.024 | inactive: -0.012 | inactive: 0.011 | inactive: -0.017 | inactive: -0.003
16 | TAPT1 (UniProt Q6NXT6) | inactive: -0.007 | inactive: 0.025 | inactive: -0.044 | inactive: -0.196 | inactive: 0.012 | inactive: 0.057 | inactive: 0.031 | inactive: 0.024 | inactive: 0.01 | inactive: 0.093 | inactive: 0.009 | inactive: 0.012 | inactive: 0.013 | inactive: 0.03 | inactive: -0.118 | inactive: -0.053 | inactive: 0.017 | inactive: -0.032 | inactive: 0.011 | inactive: -0.001

Taken from above:
Value for TAOK2 (UniProt Q9UL54) under log2 fold change (quisinostat): active: -0.516
Value for TFR2 (UniProt Q9UP52) under log2 fold change [7]: inactive: -0.031
